Assay: Real sample analysis: determination of Cr^3+ in spiked tap water by emission

## C=CCN(CC=C)CCN1C(=O)c2ccccc2C12c1ccc(N(CC)CC)cc1Oc1cc(N(CC)CC)ccc12 [Ligand L1]
pH 7.2, Cr^3+ added 10 μM
  Cr^3+ Found: 9.81 µM
pH 7.2, Cr^3+ added 20 μM
  Cr^3+ Found: 19.67 µM

Source: US9823232B2, “Ligand for detection of chromium (III) and a process for the preparation thereof” (COUNCIL OF SCIENTIFIC & INDUSTRIAL RESEARCH, priority 2013, dated 2017)
